The values below are quoted from earlier work in PMC10046692 (Cancers, 2023).

In one series the test system is C4-2B cells. The note with it: read-out: IC50 values C4-2B; cited from earlier work.
The test system of a further series is LNCaP cells. The note with it: read-out: IC50 values LnCaP; cited from earlier work.
The next series relates to 22Rv1 cells. The note with it: read-out: IC50 values 22RV1; cited from earlier work.

With `CNC(=O)c1ccc(N2C(=S)N(c3ccc(C#N)c(C(F)(F)F)c3)C(=O)C2(C)C)cc1F` [Enzalutamide], the IC50 (usually the concentration that gives 50% inhibition) with C4-2B cells was 1190 nM; in the series on LNCaP cells, 1890 nM; in the series on 22Rv1 cells, 1380 nM.
